# Data published in article doi:10.1101/2025.02.17.637997, “Phosphorylation-State Modulated Binding of HSP70: Structural Insights and Compensatory Protein Engineering” (bioRxiv, 2025).
# Protein sequences, listed by entry. Tags and fused reporters are not part of them. Lines headed by an entry give the natural chain unless they say otherwise; changes in a name come on top.
# UniProt Q9UNE7: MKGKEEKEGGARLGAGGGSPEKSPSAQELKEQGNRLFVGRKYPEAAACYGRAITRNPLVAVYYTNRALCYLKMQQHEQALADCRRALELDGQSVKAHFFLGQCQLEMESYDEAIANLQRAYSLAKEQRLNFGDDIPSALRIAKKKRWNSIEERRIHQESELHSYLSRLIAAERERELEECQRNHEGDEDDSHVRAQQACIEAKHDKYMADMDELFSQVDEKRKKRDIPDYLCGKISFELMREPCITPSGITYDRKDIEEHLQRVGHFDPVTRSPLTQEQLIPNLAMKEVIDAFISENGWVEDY
# No constants are given. Whether binding was seen depends on the method and setting. Some binding calls cover weakened binding; strength is not graded here.
# Molecular target: T1, N-FITC-Ahx-…
# T1 sequence (peptide, FITC-Ahx on the N-terminus): GSGPTIEEVD
# Experiment: fluorescence polarisation; 20 nM N-terminally FITC-labelled peptide, recombinant CHIP constructs at increasing concentrations, 30 minutes at room temperature; one site/total binding fit with Bmax constrained to 100; both purified
substance,measurement,value
recombinant full-length CHIP-K30A (from UniProt Q9UNE7 1-303) (enzyme),binding,binds weakly
